Reference: publication PMC6949151
These are yes or no findings as the source states them, for the method shown. In cells and extracts the contact can be indirect. Some results given as binding are weak or reduced against the parent protein; the word gives no strength.

The chains behind the UniProt entries cited, without tags or fusion partners.
UniProt P05412: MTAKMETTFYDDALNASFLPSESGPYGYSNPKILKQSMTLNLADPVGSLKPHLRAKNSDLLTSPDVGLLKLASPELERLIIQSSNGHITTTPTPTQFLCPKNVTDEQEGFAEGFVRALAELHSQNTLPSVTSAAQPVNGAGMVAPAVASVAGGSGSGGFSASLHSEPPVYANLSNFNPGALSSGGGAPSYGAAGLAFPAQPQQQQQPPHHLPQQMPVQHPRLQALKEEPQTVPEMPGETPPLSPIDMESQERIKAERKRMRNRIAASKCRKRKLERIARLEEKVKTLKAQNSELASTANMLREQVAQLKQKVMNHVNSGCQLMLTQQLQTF

Legend:
[1] = biological target: Flag-c-FOS (UniProt P01100); experiment: co-IP; RPTEC/TERT1 OAT3 cells co-transfected with a 6×Myc and a 2×Flag plasmid, 48 h; lysed in 1× RIPA buffer with protease inhibitor; immunoprecipitated with anti-Flag agarose and anti-Myc agarose; western blotting
[2] = biological target: Flag-c-Jun (UniProt P05412); experiment: as above
[3] = biological target: Flag-c-FOS (UniProt P01100); experiment: co-IP; the anti-Flag immunoprecipitates of Flag-c-FOS and Flag-c-Jun used for mass spectrometry, western blotted for endogenous CtBP2 and p300
[4] = biological target: Flag-c-Jun (UniProt P05412); experiment: as above
[5] = biological target: Flag-p300 (histone acetyltransferase p300) (UniProt Q09472); experiment: co-IP; RPTEC/TERT1 OAT3 cells co-transfected with a 6×Myc and a 2×Flag plasmid, 48 h; lysed in 1× RIPA buffer with protease inhibitor; immunoprecipitated with anti-Flag agarose and anti-Myc agarose; western blotting

Substance | binding [1] | binding [2] | binding [3] | binding [4] | binding [5]
Myc-p300 (histone acetyltransferase p300) (from UniProt Q09472 1-2414) | binds | binds |  |  | 
histone acetyltransferase p300 (from UniProt Q09472 1-2414) |  |  | binds | binds | 
Myc-CtBP2 (C-terminal binding protein 2) (from UniProt P56545 1-445) | no binding |  |  |  | binds
